The target in the experiment is T1, PIH1D3, LUMIER fusion (human) (UniProt Q9NQM4).
T1 sequence: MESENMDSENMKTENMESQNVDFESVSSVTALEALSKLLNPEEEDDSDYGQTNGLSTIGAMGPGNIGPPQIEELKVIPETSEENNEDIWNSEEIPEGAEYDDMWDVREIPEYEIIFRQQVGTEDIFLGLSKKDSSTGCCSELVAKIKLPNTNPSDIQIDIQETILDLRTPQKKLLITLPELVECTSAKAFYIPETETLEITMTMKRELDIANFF
As to the kind of experiment: co-IP; LUMIER: RL fusion (prey) and 3xFLAG-FFL fusion (bait) transiently expressed in HEK293, anti-FLAG coated wells, HNTG buffer, 3 h at 4 °C; co-IP efficiency from luciferase activities.

The results in this text go back to publication PMC5974087, “The RPAP3-Cterminal domain identifies R2TP-like quaternary chaperones” (Nature Communications, 2018).

No constants are given. Whether binding was seen depends on the method and setting. Binding seen in cells or lysates may run through a third protein. Binding can be weak; no strength is given. Sequences can lack the tags named with a protein.

Take DYX1C1-iso-c, LUMIER fusion (human): the binding result is given as “binds”.
